Results from one PubChem assay

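A panel of P. falciparum strains inside erythrocytes is exposed to compounds for three days, then a DNA-binding dye reports the amount of parasite DNA.
Each compound was titrated across a series from about 0.000037 to 29 µM.
The number is the fitted AC50, the concentration giving a half-maximal change in signal; a lower value means higher potency, whether the curve shows a decrease or an increase.
Calls follow the curve class and fit quality: every row here is inconclusive, covering signal-raising curves and weak, poorly fitted, partial or highest-dose-only inhibition curves.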

Values are in µM.
Every entry below has the call inconclusive.
These entries are mostly ones the record files as inconclusive; other results of the assay are not listed here.
Potencies fitted to partial, single-point or poorly fitting curves are rough.
The first word of each remark tells which way the curve ran; it can be opposite to the aim of the assay.

| # | Compound | condition | fitted potency (µM) | curve |
|---|---|---|---|---|
| 1 | `Cc1cccc(C)c1NC1=NCCCS1` | CP217 | 11.22 | inhibitor, partial curve |
| 2 | `Cc1cccc(C)c1NC1=NCCCS1` | CP238 | 12.59 | inhibitor, partial curve |
| 3 | `Cc1cccc(C)c1NC1=NCCCS1` | P94_40 | 12.59 | inhibitor, partial curve |
| 4 | `Cc1cccc(C)c1NC1=NCCCS1` | CP286 | 10 | inhibitor, single point |
| 5 | `Cc1cccc(C)c1NC1=NCCCS1` | CP215 | 12 | inhibitor, partial curve, poor fit |
| 6 | `Cc1cccc(C)c1NC1=NCCCS1` | DIV14 | 9.528 | inhibitor, partial curve, poor fit |
| 7 | `Cc1cccc(C)c1NC1=NCCCS1` | TAB109 | 8.912 | inhibitor, partial curve |
| 8 | `Cc1cccc(C)c1NC1=NCCCS1` | PC49 | 15.85 | inhibitor, single point |
| 9 | `Cc1cccc(C)c1NC1=NCCCS1` | ATS95 | 8.912 | inhibitor, single point |
| 10 | `Cc1cccc(C)c1NC1=NCCCS1` | CP252 | 11.22 | inhibitor, single point |
| 11 | `Cc1cccc(C)c1NC1=NCCCS1` | CP194 | 8.492 | inhibitor, single point |
| 12 | `Cc1cccc(C)c1NC1=NCCCS1` | AS120 | 12.59 | inhibitor, partial curve |
| 13 | `Cc1cccc(C)c1NC1=NCCCS1` | ATS189 | 10 | inhibitor, partial curve |
| 14 | `Cc1cccc(C)c1NC1=NCCCS1` | PAD | 8.912 | inhibitor, single point |
| 15 | `Cc1cccc(C)c1NC1=NCCCS1` | AA1029 | 10 | inhibitor, partial curve |
| 16 | `Cc1cccc(C)c1NC1=NCCCS1` | N140 | 14.13 | inhibitor, partial curve |
| 17 | `Cc1cccc(C)c1NC1=NCCCS1` | CP211 | 10.69 | inhibitor, partial curve, poor fit |
| 18 | `Cc1cccc(C)c1NC1=NCCCS1` | CP262 | 19.01 | activator, single point |
| 19 | `Cc1cccc(C)c1NC1=NCCCS1` | CP268 | 19.01 | inhibitor, single point |
| 20 | `Cc1cccc(C)c1NC1=NCCCS1` | CP185 | 7.943 | inhibitor, partial curve |
| 21 | `Cc1cccc(C)c1NC1=NCCCS1` | DIV30 | 4.776 | inhibitor, partial curve |
| 22 | `Cc1cccc(C)c1NC1=NCCCS1` | CP265 | 8.912 | inhibitor, partial curve |
| 23 | `Cc1cccc(C)c1NC1=NCCCS1` | CP329 | 3.013 | inhibitor, single point |
| 24 | `Cc1cccc(C)c1NC1=NCCCS1` | CP335 | 19.01 | inhibitor, single point |
| 25 | `Cc1cccc(C)c1NC1=NCCCS1` | CP297 | 10.69 | inhibitor, partial curve, poor fit |
| 26 | `Cc1cccc(C)c1NC1=NCCCS1` | CP256 | 10 | inhibitor, partial curve |
| 27 | `Cc1cccc(C)c1NC1=NCCCS1` | CP291 | 15.1 | inhibitor, single point |
| 28 | `CCOC(=O)C1=CC(OC(CC)CC)C(NC(C)=O)C(N)C1` (stereo not given) | ICS | 14.13 | inhibitor, single point |
| 29 | `CCOC(=O)C1=CC(OC(CC)CC)C(NC(C)=O)C(N)C1` (stereo not given) | GB4 | 7.569 | inhibitor, partial curve, poor fit |
| 30 | `CCOC(=O)C1=CC(OC(CC)CC)C(NC(C)=O)C(N)C1` (stereo not given) | CP297 | 19.01 | inhibitor, single point |
| 31 | `CCOC(=O)C1=CC(OC(CC)CC)C(NC(C)=O)C(N)C1` (stereo not given) | 7G8 | 15.85 | inhibitor, single point |
| 32 | `CCOC(=O)C1=CC(OC(CC)CC)C(NC(C)=O)C(N)C1` (stereo not given) | PC26 | 8.492 | inhibitor, partial curve |
| 33 | `CCOC(=O)C1=CC(OC(CC)CC)C(NC(C)=O)C(N)C1` (stereo not given) | DIV30 | 6.012 | inhibitor, partial curve |
| 34 | `CCOC(=O)C1=CC(OC(CC)CC)C(NC(C)=O)C(N)C1` (stereo not given) | DIV14 | 4.256 | inhibitor, partial curve |
| 35 | `CCOC(=O)C1=CC(OC(CC)CC)C(NC(C)=O)C(N)C1` (stereo not given) | DIV17 | 10.69 | inhibitor, partial curve |
| 36 | `CC/C(=C(\c1ccccc1)c1ccc(OCCN(C)C)cc1)c1ccccc1` | SC27B | 17.78 | inhibitor, single point |
| 37 | `CC/C(=C(\c1ccccc1)c1ccc(OCCN(C)C)cc1)c1ccccc1` | TAB165 | 17.78 | inhibitor, single point |
| 38 | `CC/C(=C(\c1ccccc1)c1ccc(OCCN(C)C)cc1)c1ccccc1` | TAB113 | 17.78 | inhibitor, single point |
| 39 | `CC/C(=C(\c1ccccc1)c1ccc(OCCN(C)C)cc1)c1ccccc1` | CP305 | 9.528 | inhibitor, partial curve, poor fit |
| 40 | `CC/C(=C(\c1ccccc1)c1ccc(OCCN(C)C)cc1)c1ccccc1` | CP194 | 15.1 | inhibitor, single point |

4 of the entries, repeated:

- Cc1cccc(C)c1NC1=NCCCS1 [CP329] | fitted potency 3.013 µM (inhibitor, single point)
- Cc1cccc(C)c1NC1=NCCCS1 [CP262] | fitted potency 19.01 µM (activator, single point)
- Cc1cccc(C)c1NC1=NCCCS1 [CP194] | fitted potency 8.492 µM (inhibitor, single point)
- Cc1cccc(C)c1NC1=NCCCS1 [ATS95] | fitted potency 8.912 µM (inhibitor, single point)

From PubChem BioAssay record AID504749 (NCATS, 2011).